The source of these data is the supplement of paper PMC10849652.

Chains of the proteins cited; added tags and fusions are not shown. Lines headed by an entry give the natural chain unless they say otherwise; changes in a name come on top.
UniProt Q9NRP2: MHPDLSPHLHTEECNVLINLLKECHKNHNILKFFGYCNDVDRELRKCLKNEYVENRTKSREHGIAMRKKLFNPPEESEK
UniProt Q9NX76: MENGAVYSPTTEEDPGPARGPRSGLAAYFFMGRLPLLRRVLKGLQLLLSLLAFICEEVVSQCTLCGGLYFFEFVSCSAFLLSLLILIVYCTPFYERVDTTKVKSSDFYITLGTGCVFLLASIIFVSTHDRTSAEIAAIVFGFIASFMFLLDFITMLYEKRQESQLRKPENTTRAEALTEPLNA
UniProt Q9BT09: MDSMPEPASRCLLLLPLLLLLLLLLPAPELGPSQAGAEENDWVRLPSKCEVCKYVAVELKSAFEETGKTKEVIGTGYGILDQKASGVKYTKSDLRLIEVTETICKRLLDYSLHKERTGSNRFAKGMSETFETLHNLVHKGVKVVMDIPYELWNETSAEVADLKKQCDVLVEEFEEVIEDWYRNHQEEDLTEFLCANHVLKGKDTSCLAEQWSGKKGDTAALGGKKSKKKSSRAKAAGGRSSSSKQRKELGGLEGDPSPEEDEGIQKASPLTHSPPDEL
UniProt Q99828: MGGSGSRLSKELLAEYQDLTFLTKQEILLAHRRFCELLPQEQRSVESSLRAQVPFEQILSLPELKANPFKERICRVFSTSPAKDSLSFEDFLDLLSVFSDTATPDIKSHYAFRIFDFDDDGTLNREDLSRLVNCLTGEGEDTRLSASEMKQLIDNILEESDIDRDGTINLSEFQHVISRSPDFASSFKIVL
UniProt Q9H6Q4: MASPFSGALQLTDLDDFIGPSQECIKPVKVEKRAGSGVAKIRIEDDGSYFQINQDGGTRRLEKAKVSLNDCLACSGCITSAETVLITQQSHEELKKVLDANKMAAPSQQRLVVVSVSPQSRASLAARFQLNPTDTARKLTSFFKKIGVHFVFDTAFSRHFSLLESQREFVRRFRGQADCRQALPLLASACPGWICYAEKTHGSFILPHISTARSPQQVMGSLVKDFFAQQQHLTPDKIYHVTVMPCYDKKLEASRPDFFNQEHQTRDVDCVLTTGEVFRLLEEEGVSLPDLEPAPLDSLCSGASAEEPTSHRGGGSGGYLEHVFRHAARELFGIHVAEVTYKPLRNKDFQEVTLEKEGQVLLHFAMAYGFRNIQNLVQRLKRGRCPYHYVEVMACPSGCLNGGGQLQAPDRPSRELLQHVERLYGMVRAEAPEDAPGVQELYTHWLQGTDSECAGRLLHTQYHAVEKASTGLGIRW
UniProt Q9GZY4: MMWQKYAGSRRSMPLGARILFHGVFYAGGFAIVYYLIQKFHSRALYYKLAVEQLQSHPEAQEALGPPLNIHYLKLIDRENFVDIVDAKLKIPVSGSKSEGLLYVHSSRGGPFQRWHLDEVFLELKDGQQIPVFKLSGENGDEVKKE
UniProt Q9Y2B0: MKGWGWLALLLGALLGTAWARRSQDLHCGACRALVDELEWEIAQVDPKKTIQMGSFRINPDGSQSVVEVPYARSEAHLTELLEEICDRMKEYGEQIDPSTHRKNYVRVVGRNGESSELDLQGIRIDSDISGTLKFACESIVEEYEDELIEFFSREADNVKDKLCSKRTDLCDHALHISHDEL
UniProt Q9NZ45: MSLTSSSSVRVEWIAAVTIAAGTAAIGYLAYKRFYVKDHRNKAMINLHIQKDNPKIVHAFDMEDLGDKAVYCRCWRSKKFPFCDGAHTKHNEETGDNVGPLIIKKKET
UniProt O75175, whole entry, looked up: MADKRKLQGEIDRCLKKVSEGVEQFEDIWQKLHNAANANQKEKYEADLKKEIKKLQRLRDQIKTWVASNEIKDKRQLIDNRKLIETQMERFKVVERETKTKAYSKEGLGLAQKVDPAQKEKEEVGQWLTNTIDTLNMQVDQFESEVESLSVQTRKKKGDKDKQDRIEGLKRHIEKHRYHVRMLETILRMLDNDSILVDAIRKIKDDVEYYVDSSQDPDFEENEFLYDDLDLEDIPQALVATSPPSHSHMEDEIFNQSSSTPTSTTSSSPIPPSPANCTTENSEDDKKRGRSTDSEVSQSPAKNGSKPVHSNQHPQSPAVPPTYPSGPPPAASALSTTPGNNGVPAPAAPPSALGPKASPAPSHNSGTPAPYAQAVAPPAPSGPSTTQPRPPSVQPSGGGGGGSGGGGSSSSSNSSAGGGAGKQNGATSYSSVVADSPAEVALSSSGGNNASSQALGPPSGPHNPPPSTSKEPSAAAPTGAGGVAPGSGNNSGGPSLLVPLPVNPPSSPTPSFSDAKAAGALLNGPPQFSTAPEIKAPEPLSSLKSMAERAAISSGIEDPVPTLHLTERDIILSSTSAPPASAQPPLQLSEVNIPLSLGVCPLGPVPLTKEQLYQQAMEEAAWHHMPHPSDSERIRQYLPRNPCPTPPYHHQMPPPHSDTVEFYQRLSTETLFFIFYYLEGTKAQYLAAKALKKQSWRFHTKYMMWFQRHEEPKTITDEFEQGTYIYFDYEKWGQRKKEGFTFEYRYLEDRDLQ
UniProt Q96BR5: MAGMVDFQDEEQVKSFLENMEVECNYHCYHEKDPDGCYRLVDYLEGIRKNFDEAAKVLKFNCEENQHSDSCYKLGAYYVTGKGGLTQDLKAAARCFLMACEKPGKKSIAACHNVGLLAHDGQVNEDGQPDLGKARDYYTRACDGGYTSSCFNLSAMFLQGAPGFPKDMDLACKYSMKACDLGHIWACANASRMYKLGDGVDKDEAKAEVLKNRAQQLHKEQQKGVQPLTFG
UniProt Q9C0A0: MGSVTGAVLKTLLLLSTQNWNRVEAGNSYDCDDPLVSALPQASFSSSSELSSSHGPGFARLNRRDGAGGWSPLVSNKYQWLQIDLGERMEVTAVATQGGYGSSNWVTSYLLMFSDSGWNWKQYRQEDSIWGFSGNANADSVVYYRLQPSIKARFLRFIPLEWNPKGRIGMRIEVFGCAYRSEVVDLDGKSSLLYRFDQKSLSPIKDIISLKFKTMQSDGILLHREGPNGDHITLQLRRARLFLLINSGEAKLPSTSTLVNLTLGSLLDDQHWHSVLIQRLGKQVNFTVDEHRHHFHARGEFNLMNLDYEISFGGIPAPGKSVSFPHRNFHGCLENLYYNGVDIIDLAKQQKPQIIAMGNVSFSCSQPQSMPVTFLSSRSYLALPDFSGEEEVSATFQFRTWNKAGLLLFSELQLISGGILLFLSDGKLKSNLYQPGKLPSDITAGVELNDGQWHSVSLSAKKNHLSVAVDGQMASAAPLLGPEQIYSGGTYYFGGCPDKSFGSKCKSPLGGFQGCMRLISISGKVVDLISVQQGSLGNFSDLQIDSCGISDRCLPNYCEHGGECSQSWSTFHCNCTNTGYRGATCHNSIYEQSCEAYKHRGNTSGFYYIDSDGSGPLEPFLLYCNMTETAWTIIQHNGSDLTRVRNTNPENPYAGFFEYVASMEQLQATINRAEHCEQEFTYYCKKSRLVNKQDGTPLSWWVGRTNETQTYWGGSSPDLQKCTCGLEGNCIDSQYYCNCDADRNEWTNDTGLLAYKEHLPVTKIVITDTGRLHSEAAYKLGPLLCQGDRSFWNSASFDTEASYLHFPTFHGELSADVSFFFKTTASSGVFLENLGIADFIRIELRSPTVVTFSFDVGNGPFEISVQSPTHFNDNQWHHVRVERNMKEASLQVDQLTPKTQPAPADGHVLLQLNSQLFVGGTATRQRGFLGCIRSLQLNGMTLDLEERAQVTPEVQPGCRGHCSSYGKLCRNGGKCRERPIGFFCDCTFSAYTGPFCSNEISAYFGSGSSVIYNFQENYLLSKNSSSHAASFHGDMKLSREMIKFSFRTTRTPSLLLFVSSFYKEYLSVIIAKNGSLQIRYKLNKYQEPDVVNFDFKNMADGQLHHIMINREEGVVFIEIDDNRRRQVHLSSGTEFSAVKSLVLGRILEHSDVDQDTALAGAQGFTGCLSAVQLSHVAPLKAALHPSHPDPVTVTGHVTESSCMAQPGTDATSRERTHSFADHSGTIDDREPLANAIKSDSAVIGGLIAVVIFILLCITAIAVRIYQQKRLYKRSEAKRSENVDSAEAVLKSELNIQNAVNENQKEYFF
UniProt Q7Z7K0: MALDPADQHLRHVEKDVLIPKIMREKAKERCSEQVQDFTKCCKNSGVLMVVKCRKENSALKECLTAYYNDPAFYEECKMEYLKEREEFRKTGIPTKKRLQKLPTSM
UniProt Q8WUX9: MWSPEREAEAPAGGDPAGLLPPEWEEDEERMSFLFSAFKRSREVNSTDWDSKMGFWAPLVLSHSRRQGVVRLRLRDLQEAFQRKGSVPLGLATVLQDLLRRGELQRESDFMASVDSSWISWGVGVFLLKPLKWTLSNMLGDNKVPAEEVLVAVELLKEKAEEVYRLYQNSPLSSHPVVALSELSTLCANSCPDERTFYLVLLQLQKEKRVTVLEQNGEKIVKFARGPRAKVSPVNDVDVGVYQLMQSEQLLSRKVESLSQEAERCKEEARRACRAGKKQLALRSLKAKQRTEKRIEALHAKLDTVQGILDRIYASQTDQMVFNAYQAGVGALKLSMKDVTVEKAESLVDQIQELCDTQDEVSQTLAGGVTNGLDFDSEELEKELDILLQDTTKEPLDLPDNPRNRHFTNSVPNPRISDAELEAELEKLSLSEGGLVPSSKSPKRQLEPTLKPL
UniProt P0C7P0: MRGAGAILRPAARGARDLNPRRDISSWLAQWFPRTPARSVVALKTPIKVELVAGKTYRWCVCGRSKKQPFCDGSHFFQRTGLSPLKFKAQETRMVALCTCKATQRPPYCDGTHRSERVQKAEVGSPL
UniProt Q8WUH1: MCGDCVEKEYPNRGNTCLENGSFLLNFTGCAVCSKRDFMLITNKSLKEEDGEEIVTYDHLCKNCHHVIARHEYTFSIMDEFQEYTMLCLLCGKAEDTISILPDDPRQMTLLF
UniProt Q92600, whole entry, looked up: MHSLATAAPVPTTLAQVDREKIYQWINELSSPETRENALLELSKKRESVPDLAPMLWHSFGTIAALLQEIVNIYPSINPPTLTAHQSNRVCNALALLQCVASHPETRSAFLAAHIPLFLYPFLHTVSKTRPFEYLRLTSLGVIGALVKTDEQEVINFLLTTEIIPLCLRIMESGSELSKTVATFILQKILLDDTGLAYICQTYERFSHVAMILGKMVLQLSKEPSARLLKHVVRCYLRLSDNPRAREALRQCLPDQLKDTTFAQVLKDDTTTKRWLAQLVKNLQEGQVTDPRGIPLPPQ
UniProt P09543: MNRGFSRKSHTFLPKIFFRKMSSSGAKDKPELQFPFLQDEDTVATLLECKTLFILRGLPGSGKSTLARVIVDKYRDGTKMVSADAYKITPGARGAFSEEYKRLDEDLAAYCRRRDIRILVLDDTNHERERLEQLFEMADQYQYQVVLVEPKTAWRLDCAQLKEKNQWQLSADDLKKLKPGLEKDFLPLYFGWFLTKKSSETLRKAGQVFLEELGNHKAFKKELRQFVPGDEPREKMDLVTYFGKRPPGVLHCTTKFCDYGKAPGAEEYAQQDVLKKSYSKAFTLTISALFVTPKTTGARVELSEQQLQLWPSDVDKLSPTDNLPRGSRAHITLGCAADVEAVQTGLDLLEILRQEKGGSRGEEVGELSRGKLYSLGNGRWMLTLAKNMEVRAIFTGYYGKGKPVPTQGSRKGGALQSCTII
UniProt Q9UHD1: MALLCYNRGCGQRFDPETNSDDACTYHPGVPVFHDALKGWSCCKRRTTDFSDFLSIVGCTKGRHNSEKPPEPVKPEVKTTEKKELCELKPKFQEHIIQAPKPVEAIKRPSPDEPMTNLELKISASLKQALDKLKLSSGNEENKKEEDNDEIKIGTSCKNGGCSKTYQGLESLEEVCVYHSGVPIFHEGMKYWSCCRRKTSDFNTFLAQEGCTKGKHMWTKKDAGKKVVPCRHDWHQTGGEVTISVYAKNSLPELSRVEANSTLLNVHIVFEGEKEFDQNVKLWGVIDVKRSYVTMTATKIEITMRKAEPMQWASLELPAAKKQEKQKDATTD
UniProt P06732: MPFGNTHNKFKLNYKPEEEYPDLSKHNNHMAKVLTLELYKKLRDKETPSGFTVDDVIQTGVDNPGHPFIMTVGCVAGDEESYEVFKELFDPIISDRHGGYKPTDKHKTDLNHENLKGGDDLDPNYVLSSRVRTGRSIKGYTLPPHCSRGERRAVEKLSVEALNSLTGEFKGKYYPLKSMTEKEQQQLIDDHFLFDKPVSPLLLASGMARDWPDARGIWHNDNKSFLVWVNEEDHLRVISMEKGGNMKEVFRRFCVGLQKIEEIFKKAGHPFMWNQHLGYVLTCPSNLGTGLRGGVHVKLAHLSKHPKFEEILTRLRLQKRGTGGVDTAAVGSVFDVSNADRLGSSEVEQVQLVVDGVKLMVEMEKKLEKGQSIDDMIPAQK
UniProt Q8N5K1: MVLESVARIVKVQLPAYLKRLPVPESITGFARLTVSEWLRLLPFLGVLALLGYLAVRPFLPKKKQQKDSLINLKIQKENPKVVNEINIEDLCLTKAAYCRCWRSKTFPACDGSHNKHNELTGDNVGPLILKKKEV

This is one part of the list.

Compound in the experiment: C1=CC=C(C=C1)C2=NC(=C(N2)C3=CC=NC=C3)C4=CC(=C(C=C4)Cl)O
In words: log2 fold change, soluble protein after heating vs DMSO (PISA); higher = thermal stabilisation; K562 cells, 10 uM, 30 min; active = over 0.2 and 3.5 SD of the protein, either way, in both replicates (recomputed). The essentials:
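Quantification of soluble protein used TMTpro 16plex LC-MS/MS, with channel sums equalised. Samples were the supernatant after 21,000xg for 90 min of pooled aliquots from K562 cells (2×10^6 cells/mL) treated with 10 μM compound for 30 min, heated for 3 min over 48°C-58°C, and extracted in PBS with 0.5% NP-40 at 4°C. Values, from duplicates, describe thermal stability against control samples on a log2 fold-change scale.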
Turning to CMC2 (UniProt Q9NRP2), the log2 fold change is inactive: -0.162.

For the target CMTM6 (UniProt Q9NX76), the log2 fold change was inactive: 0.003. The result for CNPY3 (UniProt Q9BT09) reads inactive: -0.06; that for CIB1 isoform 2 (UniProt Q99828), inactive: -0.026.

Turning to CNST (UniProt Q6PJW8), the log2 fold change is inactive: -0.029.

As to CIAO3 (UniProt Q9H6Q4), the log2 fold change was inactive: -0.008.

In the case of CNOT11 (UniProt Q9UKZ1), the log2 fold change is inactive: 0.061. The result for COA1 (UniProt Q9GZY4) reads inactive: 0.005; that for CNPY2 (UniProt Q9Y2B0), inactive: -0.053; that for CISD1 (UniProt Q9NZ45), inactive: -0.02. For CNOT6L (UniProt Q96LI5) the value was inactive: -0.03; for CNOT10 isoform 6 (UniProt Q9H9A5), inactive: -0.028; for CNOT3 (UniProt O75175), inactive: 0.015.

For the target COA7 (UniProt Q96BR5), the log2 fold change was inactive: 0.055. The result for CNTNAP4 (UniProt Q9C0A0) reads inactive: -0.139. On to CMC1 (UniProt Q7Z7K0), for which the log2 fold change is inactive: 0.047. Take CHMP7 (UniProt Q8WUX9): the log2 fold change was inactive: 0.037. Take CISD3 (UniProt P0C7P0): the log2 fold change was inactive: 0.107. For CHURC1 isoform 2 (UniProt Q8WUH1) the value was inactive: -0.053; for CNOT9 isoform 2 (UniProt Q92600), inactive: 0.032; for CKMT2 (UniProt P17540), inactive: -0.008. For COL1A2 (UniProt P08123) the value was inactive: -0.035. For CMAS (UniProt Q8NFW8) the value was inactive: -0.061. As for CNP (UniProt P09543), the log2 fold change was inactive: 0.005. For CHORDC1 (UniProt Q9UHD1) the value was inactive: 0.007; for CKM (UniProt P06732), inactive: 0.072. For CNNM3 (UniProt Q8NE01) the value was inactive: -0.027; for CNNM4 (UniProt Q6P4Q7), inactive: -0.032. CHST14 (UniProt Q8NCH0): the log2 fold change is inactive: -0.059. For CKAP5 (UniProt Q14008) the value was inactive: -0.015; for CISD2 (UniProt Q8N5K1), inactive: 0.

CKMT1A (UniProt P12532): the log2 fold change was inactive: -0.02.
